Here are results for three substances from article PMC10818380 (Pharmaceutics, 2024).

Strings that start with PEPTIDE1 are HELM notation: dots part the residues, brackets hold end groups and non-standard residues.

A short description of the data set: general procedure: Fmoc solid-phase peptide synthesis; 2-chlorotrityl chloride resin (1.6 mmol Cl-/g); HBTU/DIPEA; HATU/DIPEA for Onc112. Particulars: conjugation step, TFA.
“Fmoc-Arg(Pbf)Arg(Pbf)IleArg(Pbf)ProArg(Pbf)ProProTyr(tBu)Leu-C2-TPP”: the conjugation yield came out at 81%. The result for “Fmoc-Arg(Pbf)Arg(Pbf)IleArg(Pbf)ProArg(Pbf)ProProTyr(tBu)Leu-C10-TPP” reads 39%. In turn, “PEPTIDE1{[BODIPY-FL-C3].R.R.I.R.P.R.P.P.R.L}$$$$V2.0” gave a conjugation yield of 31%.
